Measured values reported in the supplement of paper PMC10849652.
The other results are listed elsewhere or left out.

The chains behind the UniProt entries cited, without tags or fusion partners. Where a name states a change or a piece, a line headed by the entry shows the natural chain unless it says otherwise.
UniProt Q96S44: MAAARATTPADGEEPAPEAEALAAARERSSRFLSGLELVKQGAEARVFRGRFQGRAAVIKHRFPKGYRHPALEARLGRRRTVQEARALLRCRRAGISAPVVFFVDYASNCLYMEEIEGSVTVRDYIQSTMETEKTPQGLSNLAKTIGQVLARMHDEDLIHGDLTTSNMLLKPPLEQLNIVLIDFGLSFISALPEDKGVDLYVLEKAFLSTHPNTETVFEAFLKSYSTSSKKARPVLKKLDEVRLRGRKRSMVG
UniProt Q8IUR0, whole entry, looked up: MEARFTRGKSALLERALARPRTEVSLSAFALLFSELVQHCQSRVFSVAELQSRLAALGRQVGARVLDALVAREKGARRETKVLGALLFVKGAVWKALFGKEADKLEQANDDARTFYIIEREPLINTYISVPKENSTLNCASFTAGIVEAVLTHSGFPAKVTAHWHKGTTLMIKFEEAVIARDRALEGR
UniProt O60704: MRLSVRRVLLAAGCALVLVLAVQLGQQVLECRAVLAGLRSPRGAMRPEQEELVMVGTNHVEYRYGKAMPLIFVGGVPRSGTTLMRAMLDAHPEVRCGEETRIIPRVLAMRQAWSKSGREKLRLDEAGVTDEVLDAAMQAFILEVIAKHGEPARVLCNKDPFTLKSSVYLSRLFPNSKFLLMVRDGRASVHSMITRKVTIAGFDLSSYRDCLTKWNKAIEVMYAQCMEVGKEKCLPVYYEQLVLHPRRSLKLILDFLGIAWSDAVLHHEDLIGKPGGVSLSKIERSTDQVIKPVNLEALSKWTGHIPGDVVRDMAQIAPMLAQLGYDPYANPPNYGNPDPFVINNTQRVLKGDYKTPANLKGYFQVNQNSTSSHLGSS
UniProt Q9NUP7: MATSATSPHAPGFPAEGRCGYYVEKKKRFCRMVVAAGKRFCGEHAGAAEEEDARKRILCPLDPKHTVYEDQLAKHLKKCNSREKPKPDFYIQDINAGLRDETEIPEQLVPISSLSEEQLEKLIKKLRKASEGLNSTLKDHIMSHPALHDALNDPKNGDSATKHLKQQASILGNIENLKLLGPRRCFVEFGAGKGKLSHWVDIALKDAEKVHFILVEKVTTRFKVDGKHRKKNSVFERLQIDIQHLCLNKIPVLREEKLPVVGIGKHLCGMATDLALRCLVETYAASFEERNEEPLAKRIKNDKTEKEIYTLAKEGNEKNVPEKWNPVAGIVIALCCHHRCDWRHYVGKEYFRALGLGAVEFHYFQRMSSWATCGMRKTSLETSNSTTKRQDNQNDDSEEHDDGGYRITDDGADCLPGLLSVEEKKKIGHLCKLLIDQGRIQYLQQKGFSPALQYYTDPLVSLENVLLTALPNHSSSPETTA
UniProt Q9Y3Q8: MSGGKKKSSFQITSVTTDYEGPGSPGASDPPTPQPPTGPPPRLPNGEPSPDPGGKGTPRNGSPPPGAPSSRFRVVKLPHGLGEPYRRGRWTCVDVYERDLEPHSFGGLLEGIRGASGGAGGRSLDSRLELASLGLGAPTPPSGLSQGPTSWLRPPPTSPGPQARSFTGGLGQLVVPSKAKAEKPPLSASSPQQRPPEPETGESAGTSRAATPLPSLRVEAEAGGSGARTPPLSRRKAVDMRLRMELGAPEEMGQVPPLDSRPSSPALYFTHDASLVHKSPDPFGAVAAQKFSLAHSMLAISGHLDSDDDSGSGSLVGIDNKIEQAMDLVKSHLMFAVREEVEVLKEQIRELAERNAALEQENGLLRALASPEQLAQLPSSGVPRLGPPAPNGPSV
UniProt O75157: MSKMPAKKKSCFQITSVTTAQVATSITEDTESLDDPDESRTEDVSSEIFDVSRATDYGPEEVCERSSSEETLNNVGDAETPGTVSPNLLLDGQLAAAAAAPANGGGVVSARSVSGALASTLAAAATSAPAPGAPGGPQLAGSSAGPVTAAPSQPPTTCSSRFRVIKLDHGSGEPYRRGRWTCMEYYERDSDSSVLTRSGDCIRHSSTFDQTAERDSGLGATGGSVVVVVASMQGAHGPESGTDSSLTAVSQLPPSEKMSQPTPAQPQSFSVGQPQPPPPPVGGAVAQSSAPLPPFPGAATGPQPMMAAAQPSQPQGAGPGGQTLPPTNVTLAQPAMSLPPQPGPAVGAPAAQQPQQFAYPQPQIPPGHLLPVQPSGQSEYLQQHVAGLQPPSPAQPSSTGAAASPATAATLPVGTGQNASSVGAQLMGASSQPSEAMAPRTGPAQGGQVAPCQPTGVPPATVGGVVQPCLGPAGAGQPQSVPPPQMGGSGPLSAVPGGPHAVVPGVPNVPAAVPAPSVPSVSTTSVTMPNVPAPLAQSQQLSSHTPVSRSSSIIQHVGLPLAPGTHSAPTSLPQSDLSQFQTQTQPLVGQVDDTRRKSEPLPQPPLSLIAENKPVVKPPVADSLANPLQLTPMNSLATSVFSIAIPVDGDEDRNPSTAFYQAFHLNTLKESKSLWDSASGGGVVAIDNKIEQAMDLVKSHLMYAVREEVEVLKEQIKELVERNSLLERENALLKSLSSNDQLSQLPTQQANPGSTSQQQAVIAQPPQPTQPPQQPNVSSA
UniProt Q8WW01: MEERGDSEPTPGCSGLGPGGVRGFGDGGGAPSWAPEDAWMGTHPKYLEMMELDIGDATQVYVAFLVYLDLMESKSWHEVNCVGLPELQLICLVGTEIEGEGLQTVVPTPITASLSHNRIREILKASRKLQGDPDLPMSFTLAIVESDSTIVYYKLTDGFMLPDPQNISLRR
UniProt Q9UJA5: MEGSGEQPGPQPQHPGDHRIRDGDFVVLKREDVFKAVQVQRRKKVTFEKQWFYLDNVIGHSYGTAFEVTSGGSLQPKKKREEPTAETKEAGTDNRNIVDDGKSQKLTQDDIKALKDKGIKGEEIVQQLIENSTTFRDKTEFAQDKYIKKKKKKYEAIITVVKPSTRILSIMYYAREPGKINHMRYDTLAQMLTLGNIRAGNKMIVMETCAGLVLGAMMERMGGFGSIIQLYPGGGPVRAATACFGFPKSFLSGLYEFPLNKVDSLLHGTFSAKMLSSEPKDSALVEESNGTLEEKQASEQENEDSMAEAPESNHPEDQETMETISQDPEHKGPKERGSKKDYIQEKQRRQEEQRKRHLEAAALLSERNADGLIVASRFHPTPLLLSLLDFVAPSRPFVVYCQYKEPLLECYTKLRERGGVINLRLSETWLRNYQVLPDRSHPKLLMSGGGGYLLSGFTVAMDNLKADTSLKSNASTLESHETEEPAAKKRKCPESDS
UniProt Q9NS69: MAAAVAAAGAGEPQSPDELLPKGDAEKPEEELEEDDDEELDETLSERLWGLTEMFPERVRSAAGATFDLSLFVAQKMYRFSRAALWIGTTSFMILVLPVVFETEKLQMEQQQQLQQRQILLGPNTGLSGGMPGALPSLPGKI
UniProt Q14258, whole entry, looked up: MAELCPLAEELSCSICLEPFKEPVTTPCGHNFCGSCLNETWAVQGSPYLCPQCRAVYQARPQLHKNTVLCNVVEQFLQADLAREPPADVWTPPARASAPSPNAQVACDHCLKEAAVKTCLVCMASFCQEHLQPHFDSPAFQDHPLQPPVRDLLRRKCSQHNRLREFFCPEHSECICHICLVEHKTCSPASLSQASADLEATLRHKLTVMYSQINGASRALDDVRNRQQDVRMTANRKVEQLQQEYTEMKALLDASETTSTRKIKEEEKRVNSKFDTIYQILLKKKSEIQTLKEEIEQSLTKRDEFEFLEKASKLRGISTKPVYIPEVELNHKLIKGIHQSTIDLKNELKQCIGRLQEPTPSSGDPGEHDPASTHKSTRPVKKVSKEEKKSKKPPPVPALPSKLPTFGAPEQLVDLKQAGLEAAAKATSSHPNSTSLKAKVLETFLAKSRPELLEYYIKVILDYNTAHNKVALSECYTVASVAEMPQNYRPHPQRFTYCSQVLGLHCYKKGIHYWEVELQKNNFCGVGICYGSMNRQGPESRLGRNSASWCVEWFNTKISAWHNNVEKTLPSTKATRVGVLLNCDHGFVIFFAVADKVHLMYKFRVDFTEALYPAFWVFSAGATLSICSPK
UniProt P06753, whole entry, looked up: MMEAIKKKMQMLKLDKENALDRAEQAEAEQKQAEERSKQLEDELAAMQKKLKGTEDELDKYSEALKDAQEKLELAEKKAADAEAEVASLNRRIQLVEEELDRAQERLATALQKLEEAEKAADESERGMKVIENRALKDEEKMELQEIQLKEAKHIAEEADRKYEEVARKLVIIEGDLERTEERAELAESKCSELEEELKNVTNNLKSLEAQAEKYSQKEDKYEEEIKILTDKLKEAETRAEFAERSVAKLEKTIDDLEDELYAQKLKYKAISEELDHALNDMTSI
UniProt Q8WVT3: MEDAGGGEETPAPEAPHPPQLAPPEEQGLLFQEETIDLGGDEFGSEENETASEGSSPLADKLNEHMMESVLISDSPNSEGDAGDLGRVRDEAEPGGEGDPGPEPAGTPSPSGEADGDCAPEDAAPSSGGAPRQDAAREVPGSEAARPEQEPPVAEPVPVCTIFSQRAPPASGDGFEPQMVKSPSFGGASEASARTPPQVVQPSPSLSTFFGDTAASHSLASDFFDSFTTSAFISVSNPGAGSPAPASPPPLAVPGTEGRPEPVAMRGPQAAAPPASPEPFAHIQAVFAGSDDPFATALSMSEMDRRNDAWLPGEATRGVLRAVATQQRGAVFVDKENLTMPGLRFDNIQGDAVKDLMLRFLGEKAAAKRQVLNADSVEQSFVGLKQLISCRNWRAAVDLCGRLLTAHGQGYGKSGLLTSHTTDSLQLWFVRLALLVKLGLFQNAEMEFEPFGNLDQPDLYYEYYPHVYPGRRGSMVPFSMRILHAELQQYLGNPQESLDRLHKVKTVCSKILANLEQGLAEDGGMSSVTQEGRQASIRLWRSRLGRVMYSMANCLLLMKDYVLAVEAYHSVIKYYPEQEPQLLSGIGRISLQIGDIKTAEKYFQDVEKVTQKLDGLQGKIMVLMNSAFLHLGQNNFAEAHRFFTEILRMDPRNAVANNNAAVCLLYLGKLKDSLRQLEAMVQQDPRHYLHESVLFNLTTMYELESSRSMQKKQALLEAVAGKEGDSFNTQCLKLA
UniProt O75648: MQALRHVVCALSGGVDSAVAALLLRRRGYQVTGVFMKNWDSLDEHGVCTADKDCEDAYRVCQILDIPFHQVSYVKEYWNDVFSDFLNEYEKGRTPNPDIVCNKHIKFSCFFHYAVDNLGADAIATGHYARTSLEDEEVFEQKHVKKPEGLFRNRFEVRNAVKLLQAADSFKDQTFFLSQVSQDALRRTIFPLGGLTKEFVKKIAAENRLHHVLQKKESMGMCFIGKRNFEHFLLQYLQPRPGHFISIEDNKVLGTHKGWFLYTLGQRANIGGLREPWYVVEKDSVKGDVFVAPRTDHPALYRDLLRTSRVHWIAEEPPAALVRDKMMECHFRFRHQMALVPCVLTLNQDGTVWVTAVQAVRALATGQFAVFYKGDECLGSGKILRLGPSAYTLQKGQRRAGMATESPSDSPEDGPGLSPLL
UniProt Q7Z4G4: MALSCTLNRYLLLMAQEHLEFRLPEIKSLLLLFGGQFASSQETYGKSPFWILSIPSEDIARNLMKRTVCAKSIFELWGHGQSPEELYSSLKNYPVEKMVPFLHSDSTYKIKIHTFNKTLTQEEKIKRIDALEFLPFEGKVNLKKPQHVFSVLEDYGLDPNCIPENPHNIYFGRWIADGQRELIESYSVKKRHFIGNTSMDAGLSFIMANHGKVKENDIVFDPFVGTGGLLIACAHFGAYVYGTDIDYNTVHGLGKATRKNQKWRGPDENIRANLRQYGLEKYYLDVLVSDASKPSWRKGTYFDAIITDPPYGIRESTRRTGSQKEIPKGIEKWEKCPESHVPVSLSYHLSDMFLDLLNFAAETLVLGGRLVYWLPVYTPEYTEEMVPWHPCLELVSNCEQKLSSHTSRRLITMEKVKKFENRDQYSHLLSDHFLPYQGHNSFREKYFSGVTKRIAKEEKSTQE
UniProt Q8NFQ8: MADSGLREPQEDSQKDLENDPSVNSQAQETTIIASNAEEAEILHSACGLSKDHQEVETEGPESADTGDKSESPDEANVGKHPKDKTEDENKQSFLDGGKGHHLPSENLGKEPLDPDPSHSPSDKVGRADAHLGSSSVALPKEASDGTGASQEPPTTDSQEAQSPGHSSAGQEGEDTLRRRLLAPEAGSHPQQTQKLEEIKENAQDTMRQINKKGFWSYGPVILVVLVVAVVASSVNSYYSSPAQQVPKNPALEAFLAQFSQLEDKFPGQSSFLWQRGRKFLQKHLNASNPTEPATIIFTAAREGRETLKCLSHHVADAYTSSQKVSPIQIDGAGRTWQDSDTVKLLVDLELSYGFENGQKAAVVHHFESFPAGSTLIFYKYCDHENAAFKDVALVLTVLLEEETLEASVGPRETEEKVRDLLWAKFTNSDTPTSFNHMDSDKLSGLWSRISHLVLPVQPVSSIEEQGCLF

Each target was assayed with CC(=O)c1cnc2ccc(-c3cc(Cl)c(O)c(Cl)c3)nc2c1N[C@H]1CC[C@H](CN(C)C)CC1 (assay: log2 fold change, soluble protein after heating vs DMSO (PISA); higher = thermal stabilisation; K562 cells, 10 uM, 30 min; active = over 0.2 and 3.5 SD of the protein, either way, in both replicates (recomputed)).
Outline: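 Thermal stability values are relative to control samples and come from duplicates. They are expressed as log2 fold changes. For measurement, K562 cells (2×10^6 cells/mL) received 10 μM compound for 30 min, and aliquots were heated for 3 min over 48°C-58°C, pooled, and extracted at 4°C in PBS with 0.5% NP-40. Soluble protein, the supernatant after 21,000xg for 90 min, was quantified by TMTpro 16plex LC-MS/MS with equalised channel sums.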

Row | Target | log2 fold change
1 | TP53RK (UniProt Q96S44) | inactive: -0.008
2 | TOR4A (UniProt Q9NXH8) | inactive: 0.073
3 | TRIM56 (UniProt Q9BRZ2) | inactive: -0.013
4 | TRAPPC5 (UniProt Q8IUR0) | inactive: -0.009
5 | TPST2 (UniProt O60704) | inactive: -0.027
6 | TRMT13 (UniProt Q9NUP7) | inactive: 0.055
7 | TPP2 (UniProt P29144) | inactive: 0.114
8 | TNFRSF1B (UniProt P20333) | inactive: 0.072
9 | TSC22D4 (UniProt Q9Y3Q8) | inactive: -0.053
10 | TSC22D2 (UniProt O75157) | inactive: 0.027
11 | TSEN15 (UniProt Q8WW01) | inactive: -0.018
12 | TRMT6 (UniProt Q9UJA5) | inactive: -0.039
13 | TOMM22 (UniProt Q9NS69) | inactive: -0.06
14 | TRAPPC10 (UniProt P48553) | inactive: -0.158
15 | TRIM25 (UniProt Q14258) | inactive: 0.024
16 | TPM3 isoform 2 (UniProt P06753) | inactive: -0.044
17 | TRAPPC12 (UniProt Q8WVT3) | inactive: -0.06
18 | TRMU (UniProt O75648) | inactive: -0.014
19 | TP53BP2 isoform 3 (UniProt Q13625) | inactive: -0.213
20 | TRMT11 (UniProt Q7Z4G4) | inactive: -0.048
21 | TOR1AIP2 (UniProt Q8NFQ8) | inactive: -0.001
22 | TPM3 isoform 4 (UniProt P06753) | inactive: 0.002

A different layout for part of the listing above:

| Row | Target | log2 fold change |
| --- | --- | --- |
| 3 | TRIM56 (UniProt Q9BRZ2) | inactive: -0.013 |
| 4 | TRAPPC5 (UniProt Q8IUR0) | inactive: -0.009 |
